Source: publication PMC11641020
Results are given in words; binding and its absence hold for the method and conditions named. Binding seen in cells or lysates may run through a third protein. Some binding calls cover weakened binding; strength is not graded here.

Protein sequences, listed by entry. Tags and fused reporters are not part of them.
UniProt Q8IWT6: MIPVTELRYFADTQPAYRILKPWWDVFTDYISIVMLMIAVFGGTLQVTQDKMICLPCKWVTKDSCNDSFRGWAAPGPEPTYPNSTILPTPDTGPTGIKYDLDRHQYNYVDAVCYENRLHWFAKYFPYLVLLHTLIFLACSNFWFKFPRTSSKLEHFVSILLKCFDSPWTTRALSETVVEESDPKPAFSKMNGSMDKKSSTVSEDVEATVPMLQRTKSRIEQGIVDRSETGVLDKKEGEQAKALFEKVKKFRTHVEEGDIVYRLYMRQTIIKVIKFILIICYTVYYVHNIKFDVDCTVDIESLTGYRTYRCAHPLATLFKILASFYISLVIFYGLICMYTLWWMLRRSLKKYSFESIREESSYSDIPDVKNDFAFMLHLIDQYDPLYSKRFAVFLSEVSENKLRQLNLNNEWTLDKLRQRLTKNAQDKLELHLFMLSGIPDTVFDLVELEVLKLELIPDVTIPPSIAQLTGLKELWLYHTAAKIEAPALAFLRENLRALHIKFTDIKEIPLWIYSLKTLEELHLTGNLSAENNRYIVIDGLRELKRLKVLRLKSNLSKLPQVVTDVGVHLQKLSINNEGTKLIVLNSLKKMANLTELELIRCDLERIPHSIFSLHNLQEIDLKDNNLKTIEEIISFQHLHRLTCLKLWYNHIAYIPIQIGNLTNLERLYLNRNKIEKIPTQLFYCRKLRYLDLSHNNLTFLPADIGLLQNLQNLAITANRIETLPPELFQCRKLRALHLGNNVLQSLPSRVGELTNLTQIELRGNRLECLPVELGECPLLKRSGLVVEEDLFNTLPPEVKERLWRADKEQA
UniProt P55786: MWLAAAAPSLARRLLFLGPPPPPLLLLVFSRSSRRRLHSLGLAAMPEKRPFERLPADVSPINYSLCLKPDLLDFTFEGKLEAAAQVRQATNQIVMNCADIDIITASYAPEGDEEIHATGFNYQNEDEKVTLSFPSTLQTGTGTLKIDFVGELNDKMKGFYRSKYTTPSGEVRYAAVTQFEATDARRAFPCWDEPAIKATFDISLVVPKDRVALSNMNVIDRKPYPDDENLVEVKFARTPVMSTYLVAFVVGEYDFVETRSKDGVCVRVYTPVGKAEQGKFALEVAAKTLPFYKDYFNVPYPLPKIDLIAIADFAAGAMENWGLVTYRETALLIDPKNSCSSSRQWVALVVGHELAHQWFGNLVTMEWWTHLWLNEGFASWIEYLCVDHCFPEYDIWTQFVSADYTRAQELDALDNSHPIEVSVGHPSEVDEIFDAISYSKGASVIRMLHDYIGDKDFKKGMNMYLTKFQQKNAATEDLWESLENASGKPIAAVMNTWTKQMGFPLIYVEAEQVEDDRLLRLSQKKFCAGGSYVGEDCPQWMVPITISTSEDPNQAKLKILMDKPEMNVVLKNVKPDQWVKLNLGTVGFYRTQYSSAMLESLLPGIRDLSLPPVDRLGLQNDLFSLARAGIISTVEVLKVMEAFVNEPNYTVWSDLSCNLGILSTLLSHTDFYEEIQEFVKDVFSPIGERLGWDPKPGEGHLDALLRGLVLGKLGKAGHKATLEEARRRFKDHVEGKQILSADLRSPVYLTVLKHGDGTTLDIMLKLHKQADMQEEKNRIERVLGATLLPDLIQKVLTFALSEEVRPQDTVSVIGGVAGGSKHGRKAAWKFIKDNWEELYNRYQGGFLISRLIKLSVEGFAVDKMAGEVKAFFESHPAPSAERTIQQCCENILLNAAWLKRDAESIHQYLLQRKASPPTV

Molecular target: FLAG-tagged LRRC8A (UniProt Q8IWT6)
Assay: FRET or BRET; FRET by acceptor bleaching in fixed, Tween 20-permeabilised LRRC8A^FLAG KU1919 parental cells; anti-FLAG with AF594 secondary and anti-NPEPPS with AF647 secondary; vehicle or tosedostat

- binding: binds
Substance: NPEPPS (puromycin-sensitive aminopeptidase), endogenous (from UniProt P55786 1-919) (enzyme)
